In patent US20100028924A1, “Method Of Diagnosing Pon1-Hdl Associated Lipid Disorders” (Rappaport Family Institute Research in the Medical Sciences, priority 2006, published 2010):
Numbering of substitutions follows the chain as printed.

B1: rePON1-192R: recombinant PON1 with arginine at position 192, generated to mimic the human R isozyme (protein)
chain: MAKLTALTLLGLGLALFDGQKSSFQTRFNVHREVTPVELPNCNLVKGVDNGSEDLEILPNGLAFISSGLKYPGIMSFDPDKSGKILLMDLNEEDPVVLELGITGNTLDISSFNPHGISTFTDEDNTVYLLVVNHPDSSSTVEVFKFQEEEKSLLHLKTIRHKLLPSVNDIVAVGPEHFYATNDHYFADPYLRSWEMHLGLAWSFVTYYSPNDVRVVAEGFDFANGINISPDGKYVYIAELLAHKIHVYEKHANWTLTPLKSLDFDTLVDNISVDPVTGDLWVGCHPNGMRIFYYDPKNPPGSEVLRIQDILSEEPKVTVVYAENGTVLQGSTVAAVYKGKLLIGTVFHKALYCEL
modifications: rePON1-192R isozyme
notes: recombinant PON1 with arginine at position 192, generated to mimic the human R isozyme
B2: rePON1-192Q: recombinant PON1 with glutamine at position 192, generated to mimic the human Q isozyme (protein)
chain: B1 chain with R192Q
modifications: rePON1-192Q isozyme
notes: recombinant PON1 with glutamine at position 192, generated to mimic the human Q isozyme
B3: wt rePON1-192K: recombinant wild-type PON1 variant G3C9 with C-terminal His8-tag, lysine at position 192, close homologue of rabbit PON1 (protein)
chain: B1 chain with R192K
modifications: C-terminal His8 tag; WT rePON1-192K
notes: recombinant wild-type PON1 variant G3C9 with C-terminal His8-tag, lysine at position 192, close homologue of rabbit PON1

Assay: Inactivation kinetics of rePON1 192 isozymes in activity buffer
Assay type: biochemical
Conditions: EDTA and β-mercaptoethanol, 37° C.
Description: FIG. 1 is a graph showing the inactivation kinetics of the wild-type rePON1-192K (SEQ ID NO:2), -192R (SEQ ID NO:4) and -192Q (SEQ ID NO:6) isozymes, bound to rHDL-apoA-I, or in buffer. Delipidated enzymes were incubated with a 50-fold excess of rHDL-apoA-I, or in activity buffer, and subjected to inactivation in the presence of EDTA (5 mM) and β-mercaptoethanol (10 mM) at 37° C. Residual activity at various time points was determined by initial rates of phenyl acetate hydrolysis (2 mM) and plotted as percent of the activity at time zero. Data were fitted to a single exponential for wild-type rePON1-192K on rHDL-apoA-I, and to double-exponentials for the remaining samples. The inactivation rate constants and amplitudes were derived from this fit;
Inactivation rates of rePON1s were measured as described [Gaidukov, L. and D. S. Tawfik, Biochemistry, 2005. 44(35): p. 11843-54]. Briefly, rePON1 samples were delipidated using Bio-Beads SM-2 (BioRad) and incubated in buffer, or with 50-fold molar excess of rHDL-apoA-I. EDTA (10 mM) and β-mercaptoethanol (20 mM) were added, and samples were incubated at 37° C. Residual activity at different time points was determined with 2 mM phenyl acetate, and inactivation rates were fitted to either mono- or double-exponentials [Gaidukov, L. and D. S. Tawfik, Biochemistry, 2005. 44(35): p. 11843-54].
The resultant inactivation profiles of wt rePON1 (SEQ ID NO: 2), rePON1-192Q (SEQ ID NO: 6) and rePON1-192R (SEQ ID NO: 4), were fitted to exponential curves as illustrated in FIG. 1.

Point of comparison: B2, “A2 (%) (amplitude of second, slow inactivation phase)” value 24%. Against it:
- B1 — higher, 31%
- B3 — higher, 31%
